Experimental data taken from US5574015A, “Isosteric antiherpes peptide derivatives” (priority 1994, dated 1996).
At least one peptide structure holds a part that was inferred or is arguable (an end, a ring closure or a residue).

Test system: HSV-2
Test: Inhibition of Herpes Simplex Virus (HSV-2) replication in cell culture
Format: cell-based, HSV-2 strain HG-52
Settings: Table II; BHK-21/C13 cells, 29 h incubation, 50% inhibition of virus replication
Description: Inhibition of Herpes Simplex Virus (HSV-2). Replication in Cell Culture
BHK-21/C13 cells (ATCC CCL 10) are incubated for two days in 150 cm^2 T-flasks (1.5×10^6 cells/flask) with alpha-MEM medium (Gibco Canada Inc., Burlington, Ontario, Canada) supplemented with 8% (v/v) fetal bovine serum (FBS, Gibco Canada Inc.). The cells are trypsinized and then transferred to fresh media in a 24 well plate to give 2.5×10^5 cells in 750 μL of media per well. The cells are incubated at 37° for a period of 6 h to allow them to adhere to the plate. Thereafter, the cells are washed once with 500 μL of alpha-MEM supplemented with 0.5% (v/v) FBS and then incubated with 750 μL of the see media (low serum) for 3 days. After this period of serum starvation, the low serum medium is removed and the cells are incubated in 500 μL of BBMT for 2 to 3 hours. {BBMT medium is described by P. Brazeau et al., Proc. Natl. Acad. Sci. USA, 79, 7909 (1982).} Thereafter, the cells are infected with HSV-2 (multiplicity of infection=0.02 PFU/cell) in 100 μL of BBMT medium. […]
On completion of the above 2 hour incubation of the BHK-21/C13 cells, the media is replaced with alpha-MEM medium supplemented with 3% (v/v) FBS. The cells are now ready to be infected with the various sample dilutions of virus. […]

## CCCC(CCC)NC(=O)N[C@H](C(=O)C[C@@H](CC(=O)C1CCCC1)C(=O)N[C@H](C(=O)NCC(C)(C)C)C1(C(=O)O)CCCC1)C(C)(C)C [Pr2 CHNHC(O)--Tbg--CH2 --(R)-CH{CH2 C(O)--(cyclopentyl)}C(O)--Asp(cyPn)--NHCH2 CMe3]
  EC50: 30 µM
